In publication doi:10.1101/258228:
Results are given in words; binding and its absence hold for the method and conditions named. Binding seen in cells or lysates may run through a third protein. A yes stands for co-enrichment or nearness to the bait. Other partners may have been found.

By UniProt entry, the sequences of proteins in these tests, tags left out. Where a name states a change or a piece, a line headed by the entry shows the natural chain unless it says otherwise.
UniProt Q9LRM4: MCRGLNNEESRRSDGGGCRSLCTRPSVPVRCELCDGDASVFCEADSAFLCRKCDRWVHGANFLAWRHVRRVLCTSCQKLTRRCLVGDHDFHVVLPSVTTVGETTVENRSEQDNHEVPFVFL
UniProt Q1G3I2: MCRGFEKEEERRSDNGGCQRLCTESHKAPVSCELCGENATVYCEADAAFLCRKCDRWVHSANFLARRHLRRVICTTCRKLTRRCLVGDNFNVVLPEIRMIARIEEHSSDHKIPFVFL
UniProt Q8GUI6: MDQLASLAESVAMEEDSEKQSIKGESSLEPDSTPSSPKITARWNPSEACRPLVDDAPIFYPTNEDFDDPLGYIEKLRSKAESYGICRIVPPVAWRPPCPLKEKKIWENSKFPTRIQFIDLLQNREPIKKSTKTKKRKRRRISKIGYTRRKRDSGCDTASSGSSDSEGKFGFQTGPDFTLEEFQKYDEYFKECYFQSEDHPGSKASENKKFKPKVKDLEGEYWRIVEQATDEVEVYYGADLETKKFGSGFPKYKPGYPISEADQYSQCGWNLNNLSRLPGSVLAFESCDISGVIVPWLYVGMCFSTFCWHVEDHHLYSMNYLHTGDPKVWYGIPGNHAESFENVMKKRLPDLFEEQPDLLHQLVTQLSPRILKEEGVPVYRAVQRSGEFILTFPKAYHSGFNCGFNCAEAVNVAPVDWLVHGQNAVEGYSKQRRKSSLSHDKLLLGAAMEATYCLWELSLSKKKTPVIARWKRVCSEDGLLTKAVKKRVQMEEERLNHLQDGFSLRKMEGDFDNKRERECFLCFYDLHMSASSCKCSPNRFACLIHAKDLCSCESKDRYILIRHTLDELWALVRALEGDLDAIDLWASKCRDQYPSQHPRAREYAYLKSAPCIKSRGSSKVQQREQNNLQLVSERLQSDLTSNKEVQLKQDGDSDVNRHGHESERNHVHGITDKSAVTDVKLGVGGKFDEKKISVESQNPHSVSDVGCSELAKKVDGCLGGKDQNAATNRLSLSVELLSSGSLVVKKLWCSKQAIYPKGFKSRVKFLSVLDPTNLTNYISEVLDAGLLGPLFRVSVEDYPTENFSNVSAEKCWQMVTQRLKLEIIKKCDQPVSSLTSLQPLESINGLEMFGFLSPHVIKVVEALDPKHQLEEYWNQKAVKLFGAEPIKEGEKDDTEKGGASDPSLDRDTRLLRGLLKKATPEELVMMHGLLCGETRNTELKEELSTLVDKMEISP

Experiments:
Assay in all cases: affinity purification with mass spectrometry
[1] = biological target: FLAG-miP1b (Arabidopsis thaliana) (UniProt Q9LRM4)
[2] = biological target: FLAG-miP1a (Arabidopsis thaliana) (UniProt Q1G3I2)
[3] = biological target: FLAG-JMJ14 (Arabidopsis thaliana) (UniProt Q8GUI6)

Row | Binder | binding [1] | binding [2] | binding [3]
1 | CONSTANS-like 4 (COL4) protein (protein, UniProt Q940T9 1-362) MASKLCDSCKSATAALYCRPDAAFLCLSCDSKVHAANKLASRHARVWMCEVCEQAPAHVTCKADAAALCVTCDRDIHSANPLARRHERVPVTPFYDSVSSDGSVKHTAVNFLDDCYFSDIDGNGSREEEEEEAASWLLLPNPKTTTTATAGIVAVTSAEEVPGDSPEMNTGQQYLFSDPDPYLDLDYGNVDPKVESLEQNSSGTDGVVPVENRTVRIPTVNENCFEMDFTGGSKGFTYGGGYNCISHSVSSSSMEVGVVPDGGSVADVSYPYGGPATSGADPGTQRAVPLTSAEREARVMRYREKRKNRKFEKTIRYASRKAYAEMRPRIKGRFAKRTDTNESNDVVGHGGIFSGFGLVPTF | binds | binds | 
2 | TOPLESS (protein, UniProt Q94AI7 1-1131) MSSLSRELVFLILQFLDEEKFKETVHKLEQESGFFFNMKYFEDEVHNGNWDEVEKYLSGFTKVDDNRYSMKIFFEIRKQKYLEALDKHDRPKAVDILVKDLKVFSTFNEELFKEITQLLTLENFRENEQLSKYGDTKSARAIMLVELKKLIEANPLFRDKLQFPTLRNSRLRTLINQSLNWQHQLCKNPRPNPDIKTLFVDHSCGPPNGARAPSPVNNPLLGGIPKAGGFPPLGAHGPFQPTASPVPTPLAGWMSSPSSVPHPAVSAGAIALGGPSIPAALKHPRTPPTNASLDYPSADSEHVSKRTRPMGISDEVNLGVNMLPMSFSGQAHGHSPAFKAPDDLPKTVARTLSQGSSPMSMDFHPIKQTLLLVGTNVGDIGLWEVGSRERLVQKTFKVWDLSKCSMPLQAALVKEPVVSVNRVIWSPDGSLFGVAYSRHIVQLYSYHGGEDMRQHLEIDAHVGGVNDISFSTPNKQLCVITCGDDKTIKVWDAATGVKRHTFEGHEAPVYSVCPHYKENIQFIFSTALDGKIKAWLYDNMGSRVDYDAPGRWCTTMAYSADGTRLFSCGTSKDGESFIVEWNESEGAVKRTYQGFHKRSLGVVQFDTTKNRYLAAGDDFSIKFWDMDAVQLLTAIDGDGGLQASPRIRFNKEGSLLAVSGNENVIKIMANSDGLRLLHTFENISSESSKPAINSIAAAAAAAATSAGHADRSANVVSIQGMNGDSRNMVDVKPVITEESNDKSKIWKLTEVSEPSQCRSLRLPENLRVAKISRLIFTNSGNAILALASNAIHLLWKWQRNERNATGKATASLPPQQWQPASGILMTNDVAETNPEEAVPCFALSKNDSYVMSASGGKISLFNMMTFKTMATFMPPPPAATFLAFHPQDNNIIAIGMDDSTIQIYNVRVDEVKSKLKGHSKRITGLAFSNVLNVLVSSGADAQLCVWNTDGWEKQRSKVLPLPQGRPNSAPSDTRVQFHQDQAHFLVVHETQLAIYETTKLECMKQWAVRESLAPITHATFSCDSQLVYASFMDATVCVFSSANLRLRCRVNPSAYLPASLSNSNVHPLVIAAHPQEPNMFAVGLSDGGVHIFEPLESEGKWGVAPPAENGSASGAPTAPSVGASASDQPQR | binds | binds | binds
3 | CONSTANS-like 9 (protein, UniProt Q9SSE5 1-372) MGYMCDFCGEQRSMVYCRSDAACLCLSCDRSVHSANALSKRHSRTLVCERCNAQPATVRCVEERVSLCQNCDWSGHNNSNNNNSSSSSTSPQQHKRQTISCYSGCPSSSELASIWSFCLDLAGQSICEQELGMMNIDDDGPTDKKTCNEDKKDVLVGSSSIPETSSVPQGKSSSAKDVGMCEDDFYGNLGMDEVDMALENYEELFGTAFNPSEELFGHGGIDSLFHKHQTAPEGGNSVQPAGSNDSFMSSKTEPIICFASKPAHSNISFSGVTGESSAGDFQECGASSSIQLSGEPPWYPPTLQDNNACSHSVTRNNAVMRYKEKKKARKFDKRVRYASRKARADVRRRVKGRFVKAGEAYDYDPLTPTRSY | binds | binds | 
4 | NAC50 (protein, UniProt Q9SQX9 1-447) MGRESLAVVSSPPSATAPSTAVSATSLAPGFRFHPTDEELVSYYLKRKVLGKPVRFDAIGEVDIYKHEPWDLAVFSKLKTRDQEWYFFSALDKKYGNGARMNRATNKGYWKATGKDREIRRDIQLLGMKKTLVFHSGRAPDGLRTNWVMHEYRLVEYETETNGSLLQDAYVLCRVFHKNNIGPPSGNRYAPFMEEEWADGGGALIPGIDVRVRVEALPQANGNNQMDQEMHSASKDLININELPRDATPMDIEPNQQNHHESAFKPQESNNHSGYEEDEDTLKREHAEEDERPPSLCILNKEAPLPLLQYKRRRQNESNNNSSRNTQDHCSSTITTVDNTTTLISSSAAAATNTAISALLEFSLMGISDKKENQQKEETSPPSPIASPEEKVNDLQKEVHQMSVERETFKLEMMSAEAMISILQSRIDALRQENEELKKKNASGQAS |  |  | binds
5 | NAC52 (protein, UniProt Q9SQY0 1-451) MGRESVAVVTAPPSATAPGTASVATSLAPGFRFHPTDEELVSYYLKRKVLGQPVRFDAIGEVDIYKHEPWDLAVFSRLKTRDQEWYFYSALDKKYGNGARMNRATNRGYWKATGKDREIRRDILLLGMKKTLVFHSGRAPDGLRTNWVMHEYRLVEYETEKNGNLVQDAYVLCRVFHKNNIGPPSGNRYAPFMEEEWADDEGALIPGIDVKLRLEPPPVANGNDQMDQEIQSASKSLININEPPRETAPLDIESDQQNHHENDLKPEEHNNNNNYDENEETLKREQMEEEERPPRPVCVLNKEAPLPLLQYKRRRQSESNNNSSRNTQDHCSSTTTTVDNTTTLISSSAAATNTAISALLEFSLMGISDKKEKPQQPLRPHKEPLPPQTPLASPEEKVNDLQKEIHQMSVERETFKLEMMSAEAMISILQSRIDALRQENEELKKNNANGQ |  |  | binds
